## Screening data

From PubChem BioAssay record AID1035470 (Broad Institute, 2014).

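Fluorescent reporter signals from normal-ribosome and human-like mutant-ribosome bacteria, measured on a plate reader at 24 h. The value is the change in activity at the top tested concentration; more negative means stronger inhibition. Active means the normal-ribosome signal drops at least twice as much as the mutant signal without a large loss of growth; inconclusive means no clear call.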

Every entry below has the call inconclusive. Only part of the assay is shown, chiefly results filed as inconclusive.

compound,tested on / at,activity change
Cc1ccc(C2NC(c3ccc(C)cc3)C(C)C(=O)C2C)cc1 (stereo not given),at 50 µM (top of the series),-17.16
O=C(Nc1ccc(C(=O)N2CCOCC2)cc1)C1CCCC1,at 50 µM (top of the series),29.16
O=C(Nc1ccccc1F)N1C[C@@H]2[C@H](c3ccccc31)[C@@H](CO)N2C(=O)Cc1ccccc1,at 50 µM (top of the series),-85.22
O=C(CC1C(=O)NCCN1CC1CCCCC1)NCc1ccc(F)cc1F (stereo not given),at 50 µM (top of the series),-15.89
Cc1cc(C(N)=O)nn1-c1c(Cl)cc(Cl)cc1Cl,at 50 µM (top of the series),14.93
COc1ccc(OC)c(NC(=O)c2c3c(nc4ccccc24)CCC3)c1,at 50 µM (top of the series),7.419
Cc1ccccc1S(=O)(=O)NC(=O)C1(C)CCN1C(=O)C1(c2ccc(Cl)cc2)CC1 (stereo not given),at 50 µM (top of the series),-15.75
COCc1cc(C)nc(SCC[N+](C)(C)CC(=O)c2ccc(Br)cc2)c1C#N,at 50 µM (top of the series),8.683
N#Cc1ccsc1NC(=O)CSc1nnc(NC2CC2)s1,at 50 µM (top of the series),-14.04
O=C(O)c1ccccc1Nc1cc(Cl)c2nonc2c1[N+](=O)[O-],at 50 µM (top of the series),-10.21
CCOc1ccccc1NC(=O)c1ccc2ccccc2c1,at 50 µM (top of the series),-43.09
O=S(=O)(Cc1ccccc1)N1CCCCN2[C@@H](CO)[C@H](c3ccc(C#Cc4ccccc4)cc3)[C@@H]2C1,at 50 µM (top of the series),-43.63
CNC[C@H]1OCCCC[C@@H](C)Oc2ccc(NC(=O)Nc3cccc4ccccc34)cc2C(=O)N([C@@H](C)CO)C[C@H]1C,at 26 µM (top of the series),53.52
O=C1c2cccc3cccc(c23)C(=O)N1CCCn1ccnc1,at 50 µM (top of the series),-2.451
NS(=O)(=O)c1cccc(NC(=O)COc2ncnc3c2cnn3-c2ccccc2)c1,at 50 µM (top of the series),-11.64
CCOc1ccc(OCc2cccc(C(=O)O)c2)cc1,at 50 µM (top of the series),-10.1
COc1ccc(Nc2nc(NCCO)nc(N3CCCC3)n2)cc1,at 50 µM (top of the series),-20.87
CCN(c1ccccc1)S(=O)(=O)c1cccc(C(=O)NCC(c2cccs2)N(C)C)c1 (stereo not given),at 50 µM (top of the series),9.677
O=C(CN(CCO)c1ccccc1)Nc1cccc(S(=O)(=O)N2CCCC2)c1,at 50 µM (top of the series),-16.02
CC1(C(=O)Nc2ccc3c(c2)OCCO3)CSCC(=O)N1CCOc1ccccc1 (stereo not given),at 50 µM (top of the series),-11.31
COc1ccc(-c2cc(C(=O)NCc3ccc(C(F)(F)F)cc3)[nH]n2)c(C)c1,at 50 µM (top of the series),-35.96
COc1cccc(C(=O)NC(C)c2ccc(Br)cc2)c1 (stereo not given),at 50 µM (top of the series),-4.715
COC(=O)CN1C(=S)N(c2ccc(F)cc2)C(=O)C1CC(=O)Nc1ccc(OC)cc1 (stereo not given),at 50 µM (top of the series),-5.943
COc1cccc(C(NC(C)=O)c2nc(-c3ccccc3OC)cs2)c1 (stereo not given),at 50 µM (top of the series),-24.4
COc1cc(-c2cc3nc(NCCc4ccncc4)ccn3n2)cc(OC)c1OC,at 50 µM (top of the series),-23.6
O=S1(=O)N[C@@H](Cc2ccccc2)COc2cc(N3CCC[C@H]3CO)ccc21,at 50 µM (top of the series),12.97
Nc1nn(-c2ccccc2)c2ccc([N+](=O)[O-])cc12,at 50 µM (top of the series),4.323
CCC(C(=O)Nc1ccsc1C(=O)OC)c1ccccc1 (stereo not given),at 50 µM (top of the series),-17.71
COc1ccc(/C=C/c2nc3ccccc3n2Cc2ccccc2OC)cc1,at 50 µM (top of the series),-12.98
O=C(O)CCN(Cc1ccccc1)S(=O)(=O)c1ccc(Cl)cc1F,at 50 µM (top of the series),-12.14
COCc1ccc(C(=O)N2CCCC(C(=O)c3ccc(Cl)cc3C)C2)o1 (stereo not given),at 50 µM (top of the series),-31.89
NC(=O)c1ccccc1OCCOc1ccc(Br)cc1,at 50 µM (top of the series),-8.138
CCOc1ccc(OCc2ccc(C(=O)N3CCCC3)o2)cc1,at 50 µM (top of the series),-22.61
CN(Cc1ccccc1)C(=O)c1[nH]cnc1C(=O)NCc1ccccc1,at 50 µM (top of the series),-13.23
Cc1ccc(NC(=O)c2ccc3c(c2)OCO3)cc1S(=O)(=O)N1CCOCC1,at 50 µM (top of the series),-16.65
COCC(=O)N1[C@@H]2CN(C(=O)Nc3ccccc3F)c3ccccc3[C@@H]2[C@@H]1CO,at 50 µM (top of the series),-9.069
COc1ccccc1CC(=O)NCCCc1ccccc1,at 50 µM (top of the series),5.315
C[C@@H]1CCCCO[C@H](CN(C)C)[C@H](C)CN([C@H](C)CO)C(=O)c2cc(NC(=O)Nc3cccc4ccccc34)ccc2O1,at 50 µM (top of the series),4.255
CC(=O)Nc1ccc(-c2ccnc3c2CC(C)(C(=O)Nc2ccc4c(c2)OCO4)O3)cc1 (stereo not given),at 50 µM (top of the series),-27.14
COC(=O)c1ccccc1OCCOCCOc1cccc2ccc(C)nc12,at 50 µM (top of the series),-26.18
O=C(Nc1ccc(F)cc1)N1CCCCN2[C@@H](CO)[C@H](c3ccc(-c4ccncc4)cc3)[C@@H]2C1,at 50 µM (top of the series),5.408
O=C(NCc1ccc(-c2nc3ccccc3s2)cc1)c1ccco1,at 50 µM (top of the series),-17.28
Cc1c(CCOC(=O)C23CC4CC(CC(C4)C2)C3)sc[n+]1Cc1ccccc1,at 50 µM (top of the series),-13.45
COc1cc2ccccc2cc1C(=O)NC1CCCCC1,at 50 µM (top of the series),-15.74
COc1ccc(OCC2c3cc(OC)c(OC)cc3CCN2C(=O)C(C)C)cc1 (stereo not given),at 50 µM (top of the series),-8.147
C[C@@H]1CN([C@H](C)CO)C(=O)c2c(c3ccccc3n2C)-c2ccccc2CO[C@@H]1CN(C)C(=O)CCN(C)C,at 50 µM (top of the series),13.38
Cc1cc(NCc2ccccn2)n2nc(C)c(-c3ccccc3)c2n1,at 50 µM (top of the series),-26.51
O=C(CC1SC(=O)N(Cc2ccccc2Cl)C1=O)Nc1nccs1 (stereo not given),at 50 µM (top of the series),7.205
Cc1ccccc1NCc1ccc([N+](=O)[O-])s1,at 50 µM (top of the series),-9.026
C[C@@H]1CCCCO[C@@H](CN(C)C(=O)CCCN(C)C)[C@@H](C)CN([C@H](C)CO)C(=O)c2cc(NC(=O)Nc3cccc4ccccc34)ccc2O1,at 50 µM (top of the series),28.62
CSc1nc2nc3c(cc2c(=O)n1-c1ccccc1C)CCCC3,at 50 µM (top of the series),-8.067
COc1cc2nc(Nc3ccc(F)cc3)nc(N)c2cc1OC,at 50 µM (top of the series),-15.22
O=C(COC(=O)C12CC3CC(CC(O)(C3)C1)C2)NCCc1ccc(Cl)cc1,at 50 µM (top of the series),-9.887

The last 4 entries again:

compound	tested on / at	activity change
C[C@@H]1CCCCO[C@@H](CN(C)C(=O)CCCN(C)C)[C@@H](C)CN([C@H](C)CO)C(=O)c2cc(NC(=O)Nc3cccc4ccccc34)ccc2O1	at 50 µM (top of the series)	28.62
CSc1nc2nc3c(cc2c(=O)n1-c1ccccc1C)CCCC3	at 50 µM (top of the series)	-8.067
COc1cc2nc(Nc3ccc(F)cc3)nc(N)c2cc1OC	at 50 µM (top of the series)	-15.22
O=C(COC(=O)C12CC3CC(CC(O)(C3)C1)C2)NCCc1ccc(Cl)cc1	at 50 µM (top of the series)	-9.887